In publication PMC10626419, “DONSON is required for CMG helicase assembly in the mammalian cell cycle” (EMBO Reports, 2023):
No constants are given. Whether binding was seen depends on the method and setting. Binding seen in cells or lysates may run through a third protein. Some results given as binding are weak or reduced against the parent protein; the word gives no strength. Values belong to the molecule of their own block, whether it stands above or below them.

Chains of the proteins cited; added tags and fusions are not shown.
UniProt Q99LZ3: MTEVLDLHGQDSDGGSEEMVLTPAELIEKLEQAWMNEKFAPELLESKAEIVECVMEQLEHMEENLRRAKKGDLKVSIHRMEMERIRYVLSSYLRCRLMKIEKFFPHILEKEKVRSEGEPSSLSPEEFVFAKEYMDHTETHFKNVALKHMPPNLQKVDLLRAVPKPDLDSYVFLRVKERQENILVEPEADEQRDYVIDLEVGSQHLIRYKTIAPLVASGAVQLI
UniProt P97310: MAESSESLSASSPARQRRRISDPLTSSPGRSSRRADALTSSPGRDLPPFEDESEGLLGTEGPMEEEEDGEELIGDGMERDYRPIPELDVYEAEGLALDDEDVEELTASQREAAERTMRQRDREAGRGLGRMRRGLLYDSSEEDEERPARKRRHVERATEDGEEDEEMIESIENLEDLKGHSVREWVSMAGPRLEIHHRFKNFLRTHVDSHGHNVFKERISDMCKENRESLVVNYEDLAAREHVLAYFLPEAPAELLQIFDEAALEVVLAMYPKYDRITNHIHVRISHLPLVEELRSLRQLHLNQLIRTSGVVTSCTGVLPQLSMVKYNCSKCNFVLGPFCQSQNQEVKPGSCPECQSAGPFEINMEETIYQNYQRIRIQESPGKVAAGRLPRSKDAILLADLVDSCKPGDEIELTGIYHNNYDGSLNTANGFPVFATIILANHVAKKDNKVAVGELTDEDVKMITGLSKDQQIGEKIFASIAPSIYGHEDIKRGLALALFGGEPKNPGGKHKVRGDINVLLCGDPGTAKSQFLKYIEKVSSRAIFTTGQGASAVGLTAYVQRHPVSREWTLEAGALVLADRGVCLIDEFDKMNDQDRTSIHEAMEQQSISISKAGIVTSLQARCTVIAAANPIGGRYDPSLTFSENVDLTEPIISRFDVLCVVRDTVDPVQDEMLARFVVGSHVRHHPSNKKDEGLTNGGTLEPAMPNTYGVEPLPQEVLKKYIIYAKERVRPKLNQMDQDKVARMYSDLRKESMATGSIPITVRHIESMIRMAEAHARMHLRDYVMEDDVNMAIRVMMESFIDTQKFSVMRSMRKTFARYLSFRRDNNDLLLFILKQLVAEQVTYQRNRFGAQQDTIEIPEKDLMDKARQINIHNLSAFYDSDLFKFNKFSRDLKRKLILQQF

How the values were obtained:
[1] = molecular target: T1, TAP‐PSF1 (mouse (endogenous in mouse ES cells)) (UniProt Q9CZ15); assay: co-IP; TAP‐PSF1 isolated on magnetic beads coupled to rabbit IgG, 2 h at 4°C, from nuclease-treated native extracts of mouse ES cells; cells untreated or with p97 inhibitor CB‐5083 (Fig 1A), TAP‐Psf1 cells with or without 250 nM AGB1 and untreated TAP‐Psf1 BromoTag‐Donson cells (Fig 3A); immunoblotting
T1 sequence: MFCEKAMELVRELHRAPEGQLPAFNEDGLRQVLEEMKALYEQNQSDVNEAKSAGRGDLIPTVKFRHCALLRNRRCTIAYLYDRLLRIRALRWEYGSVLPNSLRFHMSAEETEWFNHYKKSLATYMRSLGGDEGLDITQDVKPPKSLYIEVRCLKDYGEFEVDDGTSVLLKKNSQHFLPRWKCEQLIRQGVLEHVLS

[2] = molecular target: T1, TAP‐PSF1 (mouse (endogenous in mouse ES cells)); assay: co-IP; as a1, TAP‐Psf1 BromoTag‐Donson cells incubated with 250 nM AGB1 to degrade BromoTag‐DONSON (Fig 3A, lanes 10–12)
[3] = molecular target: TAP‐SLD5 (mouse (endogenous in mouse ES cells)) (UniProt Q99LZ3); assay: co-IP; TAP‐SLD5 immunoprecipitated from extracts of BromoTag‐Donson TAP‐Sld5 mouse ES cells synchronised in mitosis (thymidine, then STLC) and released for 6 h into S‐phase, without AGB1; GINS subunits monitored throughout the experiment (Fig 3C)
[4] = molecular target: TAP‐SLD5 (mouse (endogenous in mouse ES cells)) (UniProt Q99LZ3); assay: co-IP; as a5, cells arrested in mitosis with STLC, with or without AGB1 (Fig 3C, lanes 5–6)
[5] = molecular target: T1, TAP‐PSF1 (mouse (endogenous in mouse ES cells)); assay: co-IP; TAP‐PSF1 isolated on magnetic beads coupled to rabbit IgG, 2 h at 4°C, from nuclease-treated native extracts of mouse ES cells; cells untreated or with p97 inhibitor CB‐5083 (Fig 1A), TAP‐Psf1 cells with or without 250 nM AGB1 and untreated TAP‐Psf1 BromoTag‐Donson cells (Fig 3A); immunoblotting; remark: listed apart in the source

binding [1]: binds
Molecule: SLD5 (from UniProt Q99LZ3 1-223)

binding [2]: binds weakly
binding [1]: binds
binding [3]: binds
Molecule: MCM2 (from UniProt P97310 1-904)
binding [4]: no binding (condition: cells arrested in mitosis (STLC))

binding [5]: binds
B1: Recombinant mouse DONSON (natural protein, UniProt Q9QXP4 1-560, looked up)
chain: MAVSVPGYSPSFKRPPETVRLRRKRSRDHGAAVPASLPEPAPRRAALAAGLPLRPFPTAGGRGGAAATIARRNPFARLDNRPRVSDEASEEPLRGPQGASGPLLDSNEENNLLWEDTSSHERTGTELSQSQRVSLSESDTWSSDGTELPVDWSIKTRLLFTSSQPFSWADHLKAQEEAQGLVQHCRATEVTLPQSIQDPKLSTALRCAFQQALVYWLHPAFSWLPLFPRIGADRKMAAKTSPWSADETLQHALMSDWSVSFTSLYNLLKTKLCPYFYVCSYQFTVLFRAAGLAGSSVITALISPTTRGLREAMRNEGIEFSLPLLEEIGHKKKVRDPSLESEEEQAVSDEDEEESFSWLEEIGVQDQIKKPDVISIKLRKEKHEVQMDHRPESVVLVKGLNTFKLLNFLINCKSLVATSGAQAGLPPTLLSPIAFRGASMQMLKARSSNVKTQALSGYRDKFSLDITGPVMPHALHSMSMLLRSSQRGSFSAGLYAHEPTAVFNVGLSLDKELDRKVAREDLANCGLHPKTLEQLSQRPVLGKSSLRSVEMSDYILSWRS
notes: DONSON, mouse; also called His‐SUMO‐DONSON (before cleavage); source: E. coli Rosetta (DE3) pLys, purified (Ni‐NTA, ULP1 cleavage, Superdex 200)

binding [5]: binds
binding [2]: binds weakly
binding [3]: binds
B2: CDC45 (protein, UniProt Q9Z1X9 1-566)
chain: MFVTDFRKEFYETVHNQRVLLFVASDVDALCACKILQALFQCDHVQYTLVPVSGWQELETAYLEHKEQFSYFILINCGANVDLLDILQPDEDSIFFVCDTHRPVNVVNVYNDTQIKLLIKQEDDLEVPAYDDIFRDEAEDEDLSDSDGDGSEPSEKRTRLEEEIVERNRKRRQRREWEARRKDILFDYEQYEYYGTSSAMVMFDLAWMMSKDLNDMLWWAIVGLTDQWVHDKITQMKYVTDVGILQRHVSRHNHRNEAEENMLSVDCTRISFEYDLCLVLYQHWSLHESLYNTSYTAARFKLWSVHGQKRLQEFLADMGLPLKQVKQKFQSMDVSLKGNLREMIEESANKFGMKDMRVQTFSIQFGFKHKFLASDVVFATMSLMESPEKDGSGTDHFIQALDSLSRSNLDKLYLGLELAKKHLQATQQTIASCLCTNLVTSQGPFLYCSLMEGTPDVTLFSKPASLSLLSRHLLKSFVYSTKNRRCKLLPLVMAAPLSVEQGTVTVVGIPPETDSSDRKNFFGRAFEKAAESTSSRTLHNYFDLSVIELKAEDRSKFLDALVSLLS
binding [4]: no binding (condition: cells arrested in mitosis (STLC))

binding [3]: binds
B3: PSF1 (protein, UniProt Q9CZ15 1-196)
chain: T1 sequence

binding [3]: binds
B4: MCM6 (protein, UniProt P97311 1-821)
chain: MDLAAAAEPGAGSQHPEVRDEVAEKCQKLFLDFLEEFQGSDGEIKYLQFAEELIRPERNTLVVSFADLEQFNQQLSTTIQEEFYRVYPYLCRALKTFVKDRKEIPFAKDFYVAFQDLPTRHKIRELTSSRIGLLTRISGQVVRTHPVHPELVSGTFLCLDCQTVIKDVEQQFKYTQPNICRNPVCANRKRFLLDTNKSRFVDFQKVRIQETQAELPRGSIPRSLEVILRAEAVESAQAGDRCDFTGALIVVPDVSKLSTPGARAETNSRVSGADGYETEGIRGLRALGVRDLSYRLVFLACHVAPTNPRFGGKELRDEEQTAESIKNQMTVKEWEKVFEMSQDKNLYHNLCTSLFPTIHGNDEVKRGVLLMLFGGVPKTTGEGTSLRGDINVCIVGDPSTAKSQFLKHVDEFSPRAVYTSGKASSAAGLTAAVVRDEESHEFVIEAGALMLADNGVCCIDEFDKMDMRDQVAIHEAMEQQTISITKAGVKATLNARTSILAAANPVSGHYDRSKSLKQNINLSAPIMSRFDLFFILVDECNEVTDYAIARRIVDLHSRIEESIDRVYSLDDIRRYLLFARQFKPKISKESEDFIVEQYKRLRQRDGSGVTKSSWRITVRQLESMIRLSESMARMHCCDEVQPKHVKEAFRLLNKSIIRVETPDVNLDQEEEIQMETDEGQGGVNGHADSPAPVNRFNGSSEDASQETVSKPSLRLGFAEYCRISNLIVLHLRKMEEEEDESALKRSELVNWYLKEIESEIDSEEELINKKTIIEKVVHRLTHYDHVLIELTQAGLKGSSEGSESYEEDPYLVVNPNYLLED
binding [4]: no binding (condition: cells arrested in mitosis (STLC))

binding [5]: binds
binding [3]: binds
B5: PSF3 (protein, UniProt Q9CY94 1-216)
chain: MSEAYFPVESGALGPEENFLSLDDILMSQEKLPVRVETPMPRLGAFFLERGAGSEPDHPLPQGTKLELPLWLAKGLFDHKRRILSVELPKMYQEGWRTVFSADANVVDLHKMGPHFYGFGSQLLHFDSPENADISQSLLKTFIGRFRRIMDSSQNSYNEDTSALVARLDETERGLFQIGQRSLNDFQSWEKGQASQITASSLVQNYKKRKFTNMED
